# The other results are listed elsewhere or left out.
# Chains of the proteins cited; added tags and fusions are not shown. Lines headed by an entry give the natural chain unless they say otherwise; changes in a name come on top.
# UniProt O60739, whole entry, looked up: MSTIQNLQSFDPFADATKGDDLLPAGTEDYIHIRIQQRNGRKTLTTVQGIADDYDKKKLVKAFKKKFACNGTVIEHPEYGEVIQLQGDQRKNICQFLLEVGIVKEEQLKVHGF
# UniProt P60842, whole entry, looked up: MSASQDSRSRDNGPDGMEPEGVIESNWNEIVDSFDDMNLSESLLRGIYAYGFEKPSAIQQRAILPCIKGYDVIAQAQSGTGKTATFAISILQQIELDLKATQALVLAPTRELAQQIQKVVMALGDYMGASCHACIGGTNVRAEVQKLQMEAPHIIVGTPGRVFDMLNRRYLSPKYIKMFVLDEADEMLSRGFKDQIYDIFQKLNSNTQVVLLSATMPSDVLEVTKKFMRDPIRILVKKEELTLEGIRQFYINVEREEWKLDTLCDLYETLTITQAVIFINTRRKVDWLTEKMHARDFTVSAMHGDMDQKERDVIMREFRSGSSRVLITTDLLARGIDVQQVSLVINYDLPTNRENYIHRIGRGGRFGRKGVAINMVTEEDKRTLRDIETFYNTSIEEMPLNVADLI
# UniProt Q9Y227: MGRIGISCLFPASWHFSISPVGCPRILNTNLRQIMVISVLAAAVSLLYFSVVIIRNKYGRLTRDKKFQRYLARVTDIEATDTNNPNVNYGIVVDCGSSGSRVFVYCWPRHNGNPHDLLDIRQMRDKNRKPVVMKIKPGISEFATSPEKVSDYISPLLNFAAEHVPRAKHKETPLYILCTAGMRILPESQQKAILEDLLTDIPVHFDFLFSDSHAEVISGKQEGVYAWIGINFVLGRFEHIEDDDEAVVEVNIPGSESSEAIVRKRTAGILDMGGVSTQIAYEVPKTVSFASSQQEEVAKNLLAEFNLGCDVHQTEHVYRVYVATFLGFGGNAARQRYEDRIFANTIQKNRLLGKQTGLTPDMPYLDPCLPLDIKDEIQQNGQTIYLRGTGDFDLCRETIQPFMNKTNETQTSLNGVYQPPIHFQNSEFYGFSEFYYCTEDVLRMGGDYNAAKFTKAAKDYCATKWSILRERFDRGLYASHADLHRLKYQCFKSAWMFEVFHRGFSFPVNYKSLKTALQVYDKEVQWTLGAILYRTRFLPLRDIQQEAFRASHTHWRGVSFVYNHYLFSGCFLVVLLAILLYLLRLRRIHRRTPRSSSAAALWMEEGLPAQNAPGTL
# UniProt O43432, whole entry, looked up: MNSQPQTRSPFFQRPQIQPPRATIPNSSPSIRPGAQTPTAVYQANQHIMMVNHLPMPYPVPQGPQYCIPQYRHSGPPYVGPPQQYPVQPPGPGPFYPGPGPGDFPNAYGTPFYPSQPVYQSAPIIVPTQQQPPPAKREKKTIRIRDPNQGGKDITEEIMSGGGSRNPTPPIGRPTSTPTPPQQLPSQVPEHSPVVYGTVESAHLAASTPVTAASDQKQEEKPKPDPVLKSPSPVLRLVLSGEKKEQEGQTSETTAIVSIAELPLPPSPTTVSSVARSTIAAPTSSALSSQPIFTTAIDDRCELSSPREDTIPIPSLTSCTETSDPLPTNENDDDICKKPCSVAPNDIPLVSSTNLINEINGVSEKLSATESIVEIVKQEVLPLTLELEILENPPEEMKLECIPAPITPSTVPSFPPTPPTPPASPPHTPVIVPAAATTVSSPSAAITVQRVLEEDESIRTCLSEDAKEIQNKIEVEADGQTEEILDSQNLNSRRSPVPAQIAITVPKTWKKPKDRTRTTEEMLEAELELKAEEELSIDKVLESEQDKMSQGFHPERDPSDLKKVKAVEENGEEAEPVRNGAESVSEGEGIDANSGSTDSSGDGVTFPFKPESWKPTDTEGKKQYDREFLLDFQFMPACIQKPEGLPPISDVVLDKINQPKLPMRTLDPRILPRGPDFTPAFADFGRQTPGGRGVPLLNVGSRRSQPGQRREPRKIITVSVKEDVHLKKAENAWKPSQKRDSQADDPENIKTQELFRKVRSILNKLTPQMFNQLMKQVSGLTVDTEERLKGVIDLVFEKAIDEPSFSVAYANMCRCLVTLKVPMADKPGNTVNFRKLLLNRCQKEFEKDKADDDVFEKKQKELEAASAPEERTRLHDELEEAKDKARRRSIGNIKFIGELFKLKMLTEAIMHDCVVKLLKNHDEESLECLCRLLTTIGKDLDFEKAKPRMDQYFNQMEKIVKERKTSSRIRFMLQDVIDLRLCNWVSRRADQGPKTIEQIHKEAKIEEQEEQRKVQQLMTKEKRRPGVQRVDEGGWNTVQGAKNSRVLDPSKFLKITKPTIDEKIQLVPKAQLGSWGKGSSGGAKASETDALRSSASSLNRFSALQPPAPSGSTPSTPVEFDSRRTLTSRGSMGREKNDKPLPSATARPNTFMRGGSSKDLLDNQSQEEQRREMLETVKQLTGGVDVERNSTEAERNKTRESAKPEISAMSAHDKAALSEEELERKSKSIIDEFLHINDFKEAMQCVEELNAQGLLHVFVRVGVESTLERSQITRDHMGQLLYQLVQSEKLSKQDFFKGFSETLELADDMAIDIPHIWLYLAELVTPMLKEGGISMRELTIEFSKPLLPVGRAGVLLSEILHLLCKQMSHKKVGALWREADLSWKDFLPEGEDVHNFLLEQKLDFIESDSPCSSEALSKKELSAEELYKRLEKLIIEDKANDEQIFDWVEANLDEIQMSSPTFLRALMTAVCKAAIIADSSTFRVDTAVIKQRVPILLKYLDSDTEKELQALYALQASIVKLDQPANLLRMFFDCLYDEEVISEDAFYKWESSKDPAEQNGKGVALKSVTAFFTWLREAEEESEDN
# UniProt P24534: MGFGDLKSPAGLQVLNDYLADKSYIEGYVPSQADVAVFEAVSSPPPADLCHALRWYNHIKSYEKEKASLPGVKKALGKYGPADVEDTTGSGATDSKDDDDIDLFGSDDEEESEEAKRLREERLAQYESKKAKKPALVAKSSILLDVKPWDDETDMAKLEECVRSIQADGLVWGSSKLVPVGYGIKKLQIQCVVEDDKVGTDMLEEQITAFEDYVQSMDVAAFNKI
# UniProt Q6ZTU2, whole entry, looked up: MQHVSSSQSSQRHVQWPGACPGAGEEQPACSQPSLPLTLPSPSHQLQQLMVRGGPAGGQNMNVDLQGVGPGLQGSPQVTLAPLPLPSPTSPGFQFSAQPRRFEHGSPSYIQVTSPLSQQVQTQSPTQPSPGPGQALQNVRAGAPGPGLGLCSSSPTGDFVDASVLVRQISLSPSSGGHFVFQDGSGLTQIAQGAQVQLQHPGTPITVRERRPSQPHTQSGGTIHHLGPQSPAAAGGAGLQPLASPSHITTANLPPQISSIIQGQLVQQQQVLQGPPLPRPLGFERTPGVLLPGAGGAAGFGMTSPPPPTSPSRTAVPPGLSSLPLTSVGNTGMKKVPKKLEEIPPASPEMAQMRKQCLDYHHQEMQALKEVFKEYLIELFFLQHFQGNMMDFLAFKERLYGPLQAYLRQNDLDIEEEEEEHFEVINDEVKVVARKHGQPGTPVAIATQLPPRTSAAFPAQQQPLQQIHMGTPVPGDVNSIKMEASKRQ
# UniProt Q8WVE0: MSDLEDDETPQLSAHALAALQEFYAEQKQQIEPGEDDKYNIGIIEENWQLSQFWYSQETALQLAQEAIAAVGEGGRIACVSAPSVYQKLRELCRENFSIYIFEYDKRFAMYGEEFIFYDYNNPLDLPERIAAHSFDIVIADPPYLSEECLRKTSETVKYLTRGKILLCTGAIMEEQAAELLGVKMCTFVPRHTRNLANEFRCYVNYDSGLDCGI
# UniProt Q14241: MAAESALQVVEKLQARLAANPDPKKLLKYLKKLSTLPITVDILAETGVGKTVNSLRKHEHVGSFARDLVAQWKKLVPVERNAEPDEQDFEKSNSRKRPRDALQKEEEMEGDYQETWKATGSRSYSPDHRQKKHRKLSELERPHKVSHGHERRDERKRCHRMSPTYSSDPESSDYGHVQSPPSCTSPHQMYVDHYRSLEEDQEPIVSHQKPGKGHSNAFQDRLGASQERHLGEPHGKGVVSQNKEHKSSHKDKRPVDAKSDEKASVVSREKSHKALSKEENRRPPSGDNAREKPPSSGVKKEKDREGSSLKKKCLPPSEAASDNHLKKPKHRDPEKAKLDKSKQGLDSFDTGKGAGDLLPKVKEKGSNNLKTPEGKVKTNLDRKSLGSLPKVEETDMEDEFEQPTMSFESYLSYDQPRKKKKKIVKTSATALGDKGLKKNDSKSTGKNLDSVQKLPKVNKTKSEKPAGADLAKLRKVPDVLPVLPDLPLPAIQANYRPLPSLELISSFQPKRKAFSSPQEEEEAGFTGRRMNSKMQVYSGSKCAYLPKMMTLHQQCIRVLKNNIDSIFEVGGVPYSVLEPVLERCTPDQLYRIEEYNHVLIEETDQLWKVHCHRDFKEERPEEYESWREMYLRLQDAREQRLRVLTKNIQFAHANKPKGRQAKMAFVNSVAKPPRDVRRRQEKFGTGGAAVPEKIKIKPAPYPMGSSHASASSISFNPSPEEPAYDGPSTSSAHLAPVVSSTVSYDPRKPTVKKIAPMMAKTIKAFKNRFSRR
# UniProt Q9H0I2: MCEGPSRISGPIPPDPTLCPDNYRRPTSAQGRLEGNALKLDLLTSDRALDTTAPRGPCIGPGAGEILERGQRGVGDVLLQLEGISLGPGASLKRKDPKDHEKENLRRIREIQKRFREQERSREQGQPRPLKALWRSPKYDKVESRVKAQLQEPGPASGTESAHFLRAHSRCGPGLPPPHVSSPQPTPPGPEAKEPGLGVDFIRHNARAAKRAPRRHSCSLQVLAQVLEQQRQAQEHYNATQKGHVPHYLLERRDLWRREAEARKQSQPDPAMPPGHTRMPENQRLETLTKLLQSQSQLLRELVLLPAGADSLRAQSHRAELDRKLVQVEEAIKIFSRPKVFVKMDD
# UniProt Q9Y6B2: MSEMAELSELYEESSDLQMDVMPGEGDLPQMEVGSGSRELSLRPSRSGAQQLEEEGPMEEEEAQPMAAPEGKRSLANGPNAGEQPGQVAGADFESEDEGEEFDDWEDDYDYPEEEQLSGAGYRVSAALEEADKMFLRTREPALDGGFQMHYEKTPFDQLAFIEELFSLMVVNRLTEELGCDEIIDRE
# UniProt Q8NDI1: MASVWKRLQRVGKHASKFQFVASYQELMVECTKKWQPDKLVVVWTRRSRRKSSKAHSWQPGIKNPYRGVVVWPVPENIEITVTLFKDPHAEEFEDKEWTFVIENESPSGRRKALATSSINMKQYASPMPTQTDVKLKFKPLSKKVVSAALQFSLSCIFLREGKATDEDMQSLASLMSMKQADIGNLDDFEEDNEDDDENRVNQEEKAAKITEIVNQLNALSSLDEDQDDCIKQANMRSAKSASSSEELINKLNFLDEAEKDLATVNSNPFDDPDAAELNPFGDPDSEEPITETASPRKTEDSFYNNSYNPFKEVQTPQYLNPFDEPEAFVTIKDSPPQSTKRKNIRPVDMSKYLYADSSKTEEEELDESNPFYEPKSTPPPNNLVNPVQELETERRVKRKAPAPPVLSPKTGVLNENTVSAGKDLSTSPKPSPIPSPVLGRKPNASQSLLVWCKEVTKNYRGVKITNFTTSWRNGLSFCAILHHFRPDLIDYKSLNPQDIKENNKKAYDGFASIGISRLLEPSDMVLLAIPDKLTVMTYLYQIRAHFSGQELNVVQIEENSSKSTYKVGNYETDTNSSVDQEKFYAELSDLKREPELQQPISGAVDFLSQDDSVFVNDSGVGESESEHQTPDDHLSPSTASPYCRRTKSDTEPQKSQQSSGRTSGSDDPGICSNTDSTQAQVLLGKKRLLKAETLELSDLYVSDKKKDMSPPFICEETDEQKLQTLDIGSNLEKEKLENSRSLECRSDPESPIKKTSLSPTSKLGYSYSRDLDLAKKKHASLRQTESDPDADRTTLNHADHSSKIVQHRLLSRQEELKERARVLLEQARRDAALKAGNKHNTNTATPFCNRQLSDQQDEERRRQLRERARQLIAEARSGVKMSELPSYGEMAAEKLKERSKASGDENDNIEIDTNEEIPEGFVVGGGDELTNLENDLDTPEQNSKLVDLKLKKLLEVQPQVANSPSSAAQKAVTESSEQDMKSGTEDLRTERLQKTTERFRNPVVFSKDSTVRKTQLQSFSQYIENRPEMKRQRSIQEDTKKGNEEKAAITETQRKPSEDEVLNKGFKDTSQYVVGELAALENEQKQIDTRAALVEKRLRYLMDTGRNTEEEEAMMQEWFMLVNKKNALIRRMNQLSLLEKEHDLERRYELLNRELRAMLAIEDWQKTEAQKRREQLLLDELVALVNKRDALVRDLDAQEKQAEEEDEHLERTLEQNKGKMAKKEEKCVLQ
# UniProt P26378: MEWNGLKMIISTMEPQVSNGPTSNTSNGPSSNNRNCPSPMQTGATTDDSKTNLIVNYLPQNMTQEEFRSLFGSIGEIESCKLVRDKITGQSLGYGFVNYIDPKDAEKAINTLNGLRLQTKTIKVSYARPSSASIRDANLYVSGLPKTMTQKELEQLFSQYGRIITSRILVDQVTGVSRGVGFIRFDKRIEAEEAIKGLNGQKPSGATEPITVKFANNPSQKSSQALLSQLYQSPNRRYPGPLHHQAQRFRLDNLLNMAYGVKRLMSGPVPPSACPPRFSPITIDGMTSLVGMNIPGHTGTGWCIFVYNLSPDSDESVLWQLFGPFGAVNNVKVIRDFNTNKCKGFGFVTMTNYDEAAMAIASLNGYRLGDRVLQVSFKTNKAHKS
# Tests used:
# Experiment in all cases: log2 fold change, soluble protein after heating vs DMSO (PISA); higher = thermal stabilisation; K562 cells, 10 uM, 30 min; active = over 0.2 and 3.5 SD of the protein, either way, in both replicates (recomputed)
# [1] = compound: CS(=O)(=O)c1ccc(-c2cnc(N)c(C(=O)Nc3ccccc3)n2)cc1
# In short: (§1)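 K562 cells at 2×10^6 cells/mL were given 10 μM compound for 30 min. Aliquots then went through 3 min of heating across 48°C-58°C, were pooled, and were extracted in PBS with 0.5% NP-40 at 4°C, and the supernatant after 21,000xg for 90 min was quantified by TMTpro 16plex LC-MS/MS with channel sums equalised. Thermal stability relative to control samples, from duplicates, is given as log2 fold change.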
# [2] = compound: C[C@@H](Oc1cc(-c2cnn(C3CCNCC3)c2)cnc1N)c1c(Cl)ccc(F)c1Cl [crizotinib]
# In short: as §1
# [3] = compound: C[C@@H]1COCCN1C2=NC(=NC(=C2)C3(CC3)S(=O)(=O)C)C4=C5C=CNC5=CC=C4
# In short: as §1
# [4] = compound: C[C@H](C1=CC=C(C=C1)C(=O)NC2=C3C=CNC3=NC=C2)N
# In short: as §1
# [5] = compound: Cc1cc(SCc2sc(-c3ccc(C(F)(F)F)cc3)nc2C)ccc1OCC(=O)O
# In short: as §1
# [6] = compound: Cc1ccc(-n2nc(C(C)(C)C)cc2NC(=O)Nc2ccc(OCCN3CCOCC3)c3ccccc23)cc1 [doramapimod]
# In short: as §1
# [7] = compound: Cc1ccc(C(=O)N(CCCN)[C@@H](c2nc3cc(Cl)ccc3c(=O)n2Cc2ccccc2)C(C)C)cc1 [ispinesib]
# In short: as §1
# [8] = compound: Cc1cc(Nc2cc(CN3CCOCC3)c3nc(C)c(Cc4ccc(Cl)cc4F)n3n2)n[nH]1 [gandotinib]
# In short: as §1
# [9] = compound: Cc1cc(Nc2cc(N3CCN(C)CC3)nc(Sc3ccc(NC(=O)C4CC4)cc3)n2)n[nH]1 [tozasertib]
# In short: as §1
# [10] = compound: C[C@H](Nc1ncnc2nc[nH]c12)c1cc2cccc(Cl)c2c(=O)n1-c1ccccc1 [duvelisib]
# In short: as §1
target,measurement,setting,value
EEF1A1 (UniProt P68104),log2 fold change,[1],inactive: 0.081
same,log2 fold change,[2],inactive: 0.001
same,log2 fold change,[3],inactive: -0.022
same,log2 fold change,[4],inactive: -0.474
same,log2 fold change,[5],inactive: -0.004
same,log2 fold change,[6],inactive: -0.062
same,log2 fold change,[7],inactive: 0.115
EIF1B (UniProt O60739),log2 fold change,[1],inactive: 0.063
same,log2 fold change,[2],inactive: 0.147
same,log2 fold change,[3],inactive: 0.066
same,log2 fold change,[6],inactive: -0.08
same,log2 fold change,[7],inactive: 0.192
EIF3J isoform 2 (UniProt O75822),log2 fold change,[1],inactive: 0.035
same,log2 fold change,[2],inactive: 0.049
same,log2 fold change,[3],inactive: -0.043
same,log2 fold change,[5],inactive: -0.038
same,log2 fold change,[6],inactive: 0.011
EIF4G1 isoform 8 (UniProt Q04637),log2 fold change,[1],inactive: -0.21
same,log2 fold change,[2],inactive: -0.314
same,log2 fold change,[3],inactive: -0.206
same,log2 fold change,[4],inactive: 0.109
same,log2 fold change,[8],inactive: -0.032
same,log2 fold change,[5],inactive: 0.149
same,log2 fold change,[6],inactive: 0.032
same,log2 fold change,[7],inactive: -0.324
EIF2S3 (UniProt P41091),log2 fold change,[1],inactive: -0.071
same,log2 fold change,[2],inactive: -0.014
same,log2 fold change,[3],active: -0.219
same,log2 fold change,[4],inactive: 0.053
same,log2 fold change,[8],inactive: 0.077
same,log2 fold change,[5],inactive: 0.014
same,log2 fold change,[6],inactive: 0.038
same,log2 fold change,[7],inactive: -0.088
ELMO1 (UniProt Q92556),log2 fold change,[1],inactive: 0.06
same,log2 fold change,[2],inactive: -0.019
same,log2 fold change,[3],inactive: 0
same,log2 fold change,[5],inactive: -0.043
same,log2 fold change,[6],inactive: 0.033
same,log2 fold change,[7],inactive: -0.299
EIF4A1 (UniProt P60842),log2 fold change,[1],inactive: -0.055
same,log2 fold change,[2],inactive: -0.058
same,log2 fold change,[3],inactive: 0.03
same,log2 fold change,[4],inactive: -0.015
same,log2 fold change,[8],inactive: -0.206
same,log2 fold change,[5],inactive: 0.047
same,log2 fold change,[6],inactive: 0.025
same,log2 fold change,[7],inactive: -0.11
ELOC (UniProt Q15369),log2 fold change,[1],inactive: 0.038
same,log2 fold change,[2],inactive: 0.074
same,log2 fold change,[3],active: 0.279
same,log2 fold change,[4],inactive: -0.07
same,log2 fold change,[8],inactive: -0.001
same,log2 fold change,[5],inactive: -0.015
same,log2 fold change,[6],inactive: 0.012
same,log2 fold change,[7],inactive: 0.134
ENTPD4 (UniProt Q9Y227),log2 fold change,[1],inactive: -0.044
same,log2 fold change,[2],inactive: -0.041
same,log2 fold change,[3],inactive: -0.088
same,log2 fold change,[8],inactive: 0.069
same,log2 fold change,[9],inactive: -0.045
same,log2 fold change,[6],inactive: 0.094
ENO2 (UniProt U3KQQ1),log2 fold change,[1],inactive: 0.244
same,log2 fold change,[2],inactive: 0.169
same,log2 fold change,[8],inactive: 0.358
same,log2 fold change,[6],inactive: -0.115
EFEMP1 (UniProt Q12805),log2 fold change,[1],inactive: -0.071
same,log2 fold change,[2],inactive: -0.126
same,log2 fold change,[4],inactive: -0.141
same,log2 fold change,[10],inactive: 0.116
same,log2 fold change,[8],inactive: -0.186
same,log2 fold change,[9],inactive: -0.081
same,log2 fold change,[5],inactive: -0.323
same,log2 fold change,[6],inactive: -0.032
same,log2 fold change,[7],inactive: 0.287
EFL1 (UniProt Q7Z2Z2),log2 fold change,[1],inactive: 0.02
same,log2 fold change,[2],inactive: -0.055
same,log2 fold change,[3],inactive: 0.074
same,log2 fold change,[4],inactive: 0.016
same,log2 fold change,[8],inactive: -0.056
same,log2 fold change,[5],inactive: 0.029
same,log2 fold change,[6],inactive: -0.013
same,log2 fold change,[7],inactive: -0.018
EFR3A (UniProt Q14156),log2 fold change,[1],inactive: -0.055
same,log2 fold change,[3],inactive: 0.006
EIF4G3 isoform 3 (UniProt O43432),log2 fold change,[1],inactive: 0.053
same,log2 fold change,[2],inactive: -0.106
same,log2 fold change,[4],inactive: 0.074
same,log2 fold change,[5],inactive: 0.075
same,log2 fold change,[6],inactive: 0.013
same,log2 fold change,[7],inactive: -0.02
EEF1B2 (UniProt P24534),log2 fold change,[1],inactive: 0.003
same,log2 fold change,[2],inactive: -0.018
same,log2 fold change,[3],inactive: -0.073
same,log2 fold change,[4],inactive: 0.092
same,log2 fold change,[8],inactive: -0.043
same,log2 fold change,[5],inactive: 0.013
same,log2 fold change,[6],inactive: -0.065
same,log2 fold change,[7],inactive: -0.024
ELOVL1 (UniProt Q9BW60),log2 fold change,[1],inactive: 0.082
same,log2 fold change,[2],inactive: -0.182
same,log2 fold change,[3],inactive: -0.065
same,log2 fold change,[4],inactive: -0.14
same,log2 fold change,[8],inactive: -0.206
same,log2 fold change,[5],inactive: 0.078
same,log2 fold change,[6],inactive: -0.082
same,log2 fold change,[7],inactive: -0.297
EIF5A2 (UniProt Q9GZV4),log2 fold change,[4],inactive: -0.02
same,log2 fold change,[10],inactive: 0.095
same,log2 fold change,[5],inactive: 0.193
same,log2 fold change,[7],inactive: 0.023
EP400P1 isoform 6 (UniProt Q6ZTU2),log2 fold change,[10],inactive: 0.303
same,log2 fold change,[9],inactive: 0.197
same,log2 fold change,[5],inactive: 0.021
same,log2 fold change,[7],inactive: 0.054
ENPP2 isoform 2 (UniProt Q13822),log2 fold change,[3],inactive: 0.08
EP400 (UniProt Q96L91),log2 fold change,[1],inactive: -0.092
same,log2 fold change,[4],inactive: 0.186
same,log2 fold change,[8],inactive: -0.007
EPB41L1 (UniProt Q9H4G0),log2 fold change,[2],inactive: 0.03
same,log2 fold change,[3],inactive: -0.026
same,log2 fold change,[4],inactive: -0.04
same,log2 fold change,[10],inactive: -0.074
same,log2 fold change,[8],inactive: 0.091
same,log2 fold change,[9],inactive: -0.15
same,log2 fold change,[5],inactive: 0.058
same,log2 fold change,[6],inactive: 0.077
same,log2 fold change,[7],inactive: -0.02
ENTR1 (UniProt Q96C92),log2 fold change,[5],inactive: 0.048
EPB41 isoform 4 (UniProt P11171),log2 fold change,[8],inactive: -0.123
same,log2 fold change,[9],inactive: -0.047
same,log2 fold change,[7],inactive: 0.082
EGFL7 (UniProt Q9UHF1),log2 fold change,[1],inactive: -0.051
same,log2 fold change,[3],inactive: -0.21
same,log2 fold change,[8],inactive: 0.216
EIF3E (UniProt E5RIT4),log2 fold change,[3],inactive: -0.059
ELOVL7 (UniProt A1L3X0),log2 fold change,[3],inactive: 0.088
same,log2 fold change,[4],inactive: 0.037
same,log2 fold change,[5],inactive: 0.025
"EPB41, A0A2R8Y783",log2 fold change,[2],inactive: -0.091
same,log2 fold change,[10],inactive: 0.002
same,log2 fold change,[5],inactive: 0.179
same,log2 fold change,[6],inactive: -0.1
EIF4E3 (UniProt Q8N5X7),log2 fold change,[2],inactive: 0.019
same,log2 fold change,[6],inactive: -0.063
same,log2 fold change,[7],inactive: 0.065
EEF1AKMT1 (UniProt Q8WVE0),log2 fold change,[3],inactive: -0.086
EIF4G1 (UniProt Q04637),log2 fold change,[4],inactive: 0.184
same,log2 fold change,[8],inactive: -0.082
same,log2 fold change,[5],inactive: 0.227
EIF5A (UniProt I3L397),log2 fold change,[7],inactive: -0.189
EIF3I (UniProt Q5TFK1),log2 fold change,[2],inactive: -0.024
same,log2 fold change,[4],inactive: -0.036
same,log2 fold change,[10],inactive: 0
same,log2 fold change,[9],inactive: -0.054
same,log2 fold change,[5],inactive: -0.01
same,log2 fold change,[6],inactive: 0.066
same,log2 fold change,[7],inactive: 0.023
EIF4H isoform 2 (UniProt Q15056),log2 fold change,[8],inactive: -0.55
ENAH (UniProt Q8N8S7),log2 fold change,[8],inactive: -0.056
ELOA (UniProt Q14241),log2 fold change,[3],inactive: -0.088
same,log2 fold change,[8],inactive: 0.208
ENTPD3 (UniProt O75355),log2 fold change,[2],inactive: -0.043
same,log2 fold change,[6],inactive: 0.578
ELK1 (UniProt P19419),log2 fold change,[2],inactive: 0.024
same,log2 fold change,[8],inactive: -0.285
same,log2 fold change,[6],inactive: 0.167
EML5 isoform 5 (UniProt Q05BV3),log2 fold change,[2],inactive: -0.145
same,log2 fold change,[4],inactive: -0.06
same,log2 fold change,[10],inactive: 0.024
same,log2 fold change,[9],inactive: -0.048
same,log2 fold change,[5],inactive: 0.058
same,log2 fold change,[6],inactive: 0.02
same,log2 fold change,[7],inactive: 0.023
ENKD1 (UniProt Q9H0I2),log2 fold change,[8],inactive: 0.002
same,log2 fold change,[9],inactive: -0.202
ELMO2 (UniProt Q96JJ3),log2 fold change,[10],inactive: 0.125
same,log2 fold change,[5],inactive: -0.023
same,log2 fold change,[7],inactive: 0.029
EEF2K (UniProt O00418),log2 fold change,[3],inactive: -0.044
same,log2 fold change,[4],inactive: 0.4
same,log2 fold change,[8],inactive: 0.13
same,log2 fold change,[7],inactive: -0.208
EID1 (UniProt Q9Y6B2),log2 fold change,[1],inactive: -0.14
same,log2 fold change,[3],inactive: -0.424
same,log2 fold change,[8],inactive: 0.275
"EPB41, A0A2R8Y6D0",log2 fold change,[1],inactive: 0.191
same,log2 fold change,[4],inactive: -0.084
same,log2 fold change,[8],inactive: 0.088
same,log2 fold change,[9],inactive: -0.063
same,log2 fold change,[7],inactive: -0.09
EFCAB2 (UniProt Q5VUJ9),log2 fold change,[8],inactive: 0.028
same,log2 fold change,[7],inactive: -0.256
EIF2B4 (UniProt Q9UI10),log2 fold change,[2],inactive: -0.07
same,log2 fold change,[3],inactive: 0.048
same,log2 fold change,[4],inactive: 0.017
same,log2 fold change,[10],inactive: -0.043
same,log2 fold change,[8],inactive: 0.204
same,log2 fold change,[9],inactive: -0.098
same,log2 fold change,[5],inactive: 0.188
same,log2 fold change,[6],inactive: -0.012
EIF2AK3 (UniProt Q9NZJ5),log2 fold change,[2],inactive: -0.062
same,log2 fold change,[3],inactive: 0.181
same,log2 fold change,[4],inactive: 0.109
same,log2 fold change,[8],inactive: -0.113
same,log2 fold change,[5],inactive: 0.188
same,log2 fold change,[6],inactive: 0.032
EHBP1 (UniProt Q8NDI1),log2 fold change,[4],inactive: 0.158
same,log2 fold change,[8],inactive: 0.015
ENO3 (UniProt K7EKN2),log2 fold change,[10],inactive: 0.119
same,log2 fold change,[5],inactive: 0.085
same,log2 fold change,[7],inactive: -0.234
ELAVL4 (UniProt P26378),log2 fold change,[2],inactive: 0.062
same,log2 fold change,[4],inactive: 0.105
same,log2 fold change,[8],inactive: 0.154
same,log2 fold change,[9],inactive: 0.116
same,log2 fold change,[6],inactive: -0.121
same,log2 fold change,[7],inactive: -0.003
EIF4B (UniProt F8VP89),log2 fold change,[2],inactive: -0.055
same,log2 fold change,[4],inactive: -0.041
same,log2 fold change,[8],inactive: 0.117
same,log2 fold change,[6],inactive: -0.085
same,log2 fold change,[7],inactive: 0.019

# 2 records picked at random from those above:
target,measurement,setting,value
EEF1A1 (UniProt P68104),log2 fold change,[3],inactive: -0.022
EPB41L1 (UniProt Q9H4G0),log2 fold change,[2],inactive: 0.03

# Another view of part of the listing above.
target	measurement	setting	value
EP400P1 isoform 6 (UniProt Q6ZTU2)	log2 fold change	[10]	inactive: 0.303
EIF4B (UniProt F8VP89)	log2 fold change	[2]	inactive: -0.055

# 2 entries from above, reformatted:
target	measurement	setting	value
ELMO1 (UniProt Q92556)	log2 fold change	[3]	inactive: 0
ENO2 (UniProt U3KQQ1)	log2 fold change	[8]	inactive: 0.358

# From the supplement of paper PMC10849652
